# Experimental data: patent publication US20240349733A1 (priority 2023, published 2024)
# Read-outs that look alike come from different tables or passages of the source. At least one compound was matched to its structure with a doubt left. Some of these results come from one statement about several compounds together. Ends that are not written are not given here.
# B1: 22602-SOD12: STAMP, SEQ ID NO: 21; binder 22602, GGSGGS linker, SOD12 (peptide)
# chain: MGINGFKFLSDIHHFCSGGSGGSRICESASYRFKGICVSRSNCANVCKNEGFPGGRCRGFRRRCLCYKHCG
# B2: SOD12-57020: STAMP, SEQ ID NO: 24; SOD12, GGSGGS linker, binder 57020 (peptide)
# chain: RICESASYRFKGICVSRSNCANVCKNEGFPGGRCRGFRRRCLCYKHCGGGSGGSSRNSSIALGLRRAYAVFNYFVARGI
# System: R. galegae
Molecule,Mortality of R. galegae (50 μg/ml),Mortality of R. galegae (100 μg/ml),Efficacy relative to SOD12 alone in R. galegae (50 μg/ml)
"RICESASYRFKGICVSRSNCANVCKNEGFPGGRCRGFRRRCLCYKHCG (cysteines drawn unpaired) [SOD12, reference compound]",~8%,> 80%,
SRNSSIALGLRRAYAVFNYFVARGI [compound 57020],,20-27%,
"MGINGFKFLSDIHHFCS [compound 22602, MGINGFKFLSDIHHFCS]",,20-27%,
B1,,,8- to 12 fold
B2,,,8- to 12 fold
